Data taken from publication PMC12583513, “Deciphering the molecular mechanism of the bacterial division motor TolQRA” (Cell Discovery, 2025).

The chains behind the UniProt entries cited, without tags or fusion partners. Where a name states a change or a piece, a line headed by the entry shows the natural chain unless it says otherwise.
UniProt P19934: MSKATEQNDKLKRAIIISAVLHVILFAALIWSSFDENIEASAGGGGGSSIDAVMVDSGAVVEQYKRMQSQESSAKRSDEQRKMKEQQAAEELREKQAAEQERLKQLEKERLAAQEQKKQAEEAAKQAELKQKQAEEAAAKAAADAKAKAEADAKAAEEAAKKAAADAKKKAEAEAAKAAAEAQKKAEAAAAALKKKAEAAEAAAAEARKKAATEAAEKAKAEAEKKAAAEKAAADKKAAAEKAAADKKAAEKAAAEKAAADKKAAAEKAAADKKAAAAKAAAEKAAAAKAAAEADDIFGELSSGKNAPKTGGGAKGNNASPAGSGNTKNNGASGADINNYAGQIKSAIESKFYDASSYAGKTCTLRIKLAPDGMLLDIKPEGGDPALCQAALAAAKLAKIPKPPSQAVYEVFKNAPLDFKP

How the values were obtained:
[1] = biological target: TolA V55C with C-terminal eight-histidine tag (Escherichia coli (strain K12)) (UniProt P19934); assay: cross-linking; disulfide between cysteines introduced in TolR_β6 and TolA_β; complex shifted to a higher molecular weight (Supplementary Fig. S9b)
[2] = biological target: TolA V53C with C-terminal eight-histidine tag (Escherichia coli (strain K12)) (UniProt P19934); assay: as above

binding [1] | binding [2] | Binder
binds |  | TolR L137C with C-terminal strep-tag (protein, UniProt P0ABV6 1-142) MARARGRGRRDLKSEINIVPLLDVLLVLLLIFMATAPIITQSVEVDLPDATESQAVSSNDNPPVIVEVSGIGQYTVVVEKDRLERLPPEQVVAEVSSRFKANPKTVFLIGGAKDVPYDEIIKALNLLHSAGVKSVGCMTQPI
 | binds | TolR V135C with C-terminal strep-tag (protein, UniProt P0ABV6 1-142) MARARGRGRRDLKSEINIVPLLDVLLVLLLIFMATAPIITQSVEVDLPDATESQAVSSNDNPPVIVEVSGIGQYTVVVEKDRLERLPPEQVVAEVSSRFKANPKTVFLIGGAKDVPYDEIIKALNLLHSAGVKSCGLMTQPI

These are yes or no findings as the source states them, for the method shown. Binding seen in cells or lysates may run through a third protein. Binding calls can cover weak binding; strength is not graded here. Tags and fused reporters may be left off the sequences shown.
